According to paper PMC7196898:
Results are given in words; binding and its absence hold for the method and conditions named. Binding seen in cells or lysates may run through a third protein. Some results given as binding are weak or reduced against the parent protein; the word gives no strength. For part of these data: Tags and fused reporters may be left off the sequences shown. One block for each binder: values may come before it.

Legend:
[1] = target: T1, Citrine-LYM2 (LYSM-CONTAINING GPI-ANCHORED PROTEIN 2), expressed in N. benthamiana (Arabidopsis) (UniProt O23006); test: FRET or BRET; homo-FRET by fluorescence anisotropy (r) of Citrine-LYM2 in chitin-treated N. benthamiana tissue, regions of interest in the plasma membrane and at plasmodesmata, against freely rotating cytosolic GFP
T1 sequence: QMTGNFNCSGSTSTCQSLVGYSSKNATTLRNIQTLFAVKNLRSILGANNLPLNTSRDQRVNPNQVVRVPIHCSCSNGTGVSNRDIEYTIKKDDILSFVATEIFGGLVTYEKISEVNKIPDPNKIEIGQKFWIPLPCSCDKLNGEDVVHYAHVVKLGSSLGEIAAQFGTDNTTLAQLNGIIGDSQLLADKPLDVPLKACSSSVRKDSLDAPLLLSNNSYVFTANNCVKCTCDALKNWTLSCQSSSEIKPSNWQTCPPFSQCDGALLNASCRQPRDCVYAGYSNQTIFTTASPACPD

[2] = target: T1, Citrine-LYM2 (LYSM-CONTAINING GPI-ANCHORED PROTEIN 2), expressed in N. benthamiana (Arabidopsis); test: co-IP; N. benthamiana leaves coexpressing bait and prey, water- or chitin-treated; Citrine- or GFP-tagged bait precipitated from detergent-extracted fractions with GFP-Trap beads, 2 h at 4 °C; IP buffer 50 mM Tris-HCl pH 7.5, 150 mM NaCl, 0.5% IGEPAL CA-630; blots with anti-GFP and anti-HA
LYK4-GFP (Arabidopsis) [3] = target: T2, LYK4-GFP (Arabidopsis) (UniProt O64825); test: as above
T2 sequence: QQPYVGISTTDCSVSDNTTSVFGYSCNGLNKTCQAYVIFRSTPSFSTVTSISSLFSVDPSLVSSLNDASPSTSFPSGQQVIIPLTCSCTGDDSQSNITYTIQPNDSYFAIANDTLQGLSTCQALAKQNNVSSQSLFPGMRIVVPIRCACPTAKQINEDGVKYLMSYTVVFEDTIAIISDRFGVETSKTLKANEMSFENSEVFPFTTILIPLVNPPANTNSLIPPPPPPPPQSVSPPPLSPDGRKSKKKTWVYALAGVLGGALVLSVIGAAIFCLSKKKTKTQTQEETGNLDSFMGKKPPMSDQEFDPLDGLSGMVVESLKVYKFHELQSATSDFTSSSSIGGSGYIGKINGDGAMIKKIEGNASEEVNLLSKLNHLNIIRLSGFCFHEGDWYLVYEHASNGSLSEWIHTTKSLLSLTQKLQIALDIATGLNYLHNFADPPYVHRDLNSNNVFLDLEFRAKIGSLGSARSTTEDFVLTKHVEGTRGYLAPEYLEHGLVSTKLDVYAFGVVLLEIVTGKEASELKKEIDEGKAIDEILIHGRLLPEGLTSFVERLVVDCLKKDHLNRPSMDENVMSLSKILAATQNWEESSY

LYK4-GFP (Arabidopsis) [4] = target: T2, LYK4-GFP (Arabidopsis); test: FRET or BRET; FRET-FLIM in N. benthamiana leaf tissue, plasma membrane; donor LYK4-GFP, acceptor LYK5-RFP; 30 min after infiltration with water (mock) or chitin (500 µg/mL); GFP fluorescence lifetime (τAv)
[5] = target: T3, Citrine-LYM2, expressed in Arabidopsis protoplasts (Arabidopsis) (UniProt O23006); test: co-IP; Arabidopsis Col-0 and lyk5-2 protoplasts expressing Citrine-LYM2 and LYK4-RFP, with or without chitin; Citrine-LYM2 precipitated with GFP-Trap beads; blots with anti-GFP and anti-RFP
T3 sequence: T1 sequence

binding [1]: binds
B1: Citrine-LYM2 (LYSM-CONTAINING GPI-ANCHORED PROTEIN 2), expressed in N. benthamiana (receptor, UniProt O23006 24-318)
chain: T1 sequence

binding [2]: binds | binding (LYK4-GFP (Arabidopsis) [3]): binds
B2: LYK5-HA (receptor, UniProt O22808 27-664)
chain: QQPYVNNHQLACEVRVYDNITNGFTCNGPPSCRSYLTFWSQPPYNTADSIAKLLNVSAAEIQSINNLPTATTRIPTRELVVIPANCSCSSSSGGFYQHNATYNLSGNRGDETYFSVANDTYQALSTCQAMMSQNRYGERQLTPGLNLLVPLRCACPTAKQTTAGFKYLLTYLVAMGDSISGIAEMFNSTSAAITEGNELTSDNIFFFTPVLVPLTTEPTKIVISPSPPPPPVVATPPQTPVDPPGSSSSHKWIYIGIGIGAGLLLLLSILALCFYKRRSKKKSLPSSLPEENKLFDSSTKQSIPTTTTTQWSIDLSNSSEAFGLKSAIESLTLYRFNDLQSATSNFSDENRIKGSVYRATINGDDAAVKVIKGDVSSSEINLLKKLNHSNIIRLSGFCIREGTSYLVFEYSENGSISDWLHSSGKKSLTWKQRVEIARDVAEALDYLHNYITPPHIHKNLESTNILLDSNFRAKIANFGVARILDEGDLDLQLTRHVEGTQGYLAPEYVENGVITSKLDVFAFGVAVLELLSGREAVTIHKKKEGEEEVEMLCKVINSVLGGENVREKLKEFMDPSLGNEYPLELAYTMAQLAKSCVATDLNSRPSVTQVLTTLSMIVSSSIDWEPSDDLLRSGSLGN

binding (LYK4-GFP (Arabidopsis) [4]): binds
B3: LYK5-RFP (receptor, UniProt O22808 27-664)
chain: B2 chain

binding [2]: binds
B4: LYK4-HA (receptor, UniProt O64825 23-612)
chain: T2 sequence

binding [5]: binds
B5: LYK4-RFP, expressed in Arabidopsis protoplasts (receptor, UniProt O64825 23-612)
chain: T2 sequence
